# In the supplement of paper PMC8728848:
# The other results are listed elsewhere or left out.
# Experiments:
# Assay in all cases: glycan array binding signal (z-score within array); higher = stronger binding
# Conditions in all cases: glycan notation: IUPAC condensed, linker removed
# Neu5Ac(a2-8)Neu5Ac = target: Neu5Ac(a2-8)Neu5Ac
# How it was run: (§1)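 The binding signal is a Z-score computed within each array. Data were drawn from 3228 arrays in the Consortium for Functional Glycomics database, restricted to those with a known protein sequence. Scores were averaged over arrays of the same protein sequence at different concentrations or buffers, and over linkers, and negative values can be taken as non-binding.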
# [1] = target: Neu5Ac(a2-8)Neu5Ac(a2-3)Gal(b1-3)GalNAc(b1-4)[Neu5Ac(a2-3)]Gal(b1-4)Glc
# How it was run: as §1
# [2] = target: Neu5Ac(a2-8)Neu5Ac(a2-3)Gal(b1-3)GalNAc(b1-4)[Neu5Ac(a2-8)Neu5Ac(a2-3)]Gal(b1-4)Glc
# How it was run: as §1
# [3] = target: Neu5Ac(a2-8)Neu5Ac(a2-3)Gal(b1-4)Glc
# How it was run: as §1
# [4] = target: Neu5Ac(a2-8)Neu5Ac(a2-3)Gal(b1-4)GlcNAc
# How it was run: as §1
# [5] = target: Neu5Ac(a2-8)Neu5Ac(a2-3)[Gal(b1-3)GalNAc(b1-4)]Gal(b1-4)Glc
# How it was run: as §1
# [6] = target: Neu5Ac(a2-8)Neu5Ac(a2-3)[GalNAc(b1-4)]Gal(b1-4)Glc
# How it was run: as §1
# [7] = target: Neu5Ac(a2-8)Neu5Ac(a2-8)Neu5Ac
# How it was run: as §1
# [8] = target: Neu5Ac(a2-8)Neu5Ac(a2-8)Neu5Ac(a2-3)Gal(b1-4)Glc
# How it was run: as §1
# [9] = target: Neu5Ac(a2-8)Neu5Ac(a2-8)Neu5Ac(a2-3)[Gal(b1-3)GalNAc(b1-4)]Gal(b1-4)Glc
# How it was run: as §1
# [10] = target: Neu5Ac(a2-8)Neu5Ac(a2-8)Neu5Ac(a2-3)[GalNAc(b1-4)]Gal(b1-4)Glc
# How it was run: as §1
# [11] = target: Neu5Ac(a2-8)Neu5Ac(a2-8)Neu5Ac(a2-8)Neu5Ac(a2-3)[GalNAc(b1-4)]Gal(b1-4)Glc
# How it was run: as §1
# [12] = target: Neu5Ac(a2-8)Neu5Gc(a2-3)Gal(b1-4)GlcNAc
# How it was run: as §1
# [13] = target: Neu5Ac(b2-6)Gal(b1-4)GlcNAc
# How it was run: as §1
# Neu5Ac(b2-6)GalNAc = target: Neu5Ac(b2-6)GalNAc
# How it was run: as §1
# [14] = target: Neu5Ac9Ac(a2-3)Gal(b1-3)GlcNAc
# How it was run: as §1
# [15] = target: Neu5Ac9Ac(a2-3)Gal(b1-4)GlcNAc
# How it was run: as §1
# [16] = target: Neu5Ac9Ac(a2-6)Gal(b1-4)GlcNAc
# How it was run: as §1
# [17] = target: Neu5Gc(a2-3)Gal(b1-3)GlcNAc
# How it was run: as §1
# [18] = target: Neu5Gc(a2-3)Gal(b1-3)[Fuc(a1-4)]GlcNAc
# How it was run: as §1
# Neu5Gc(a2-3)Gal(b1-4)Glc = target: Neu5Gc(a2-3)Gal(b1-4)Glc
# How it was run: as §1
# [19] = target: Neu5Gc(a2-3)Gal(b1-4)GlcNAc
# How it was run: as §1
# [20] = target: Neu5Gc(a2-3)Gal(b1-4)GlcNAc(b1-3)Gal(b1-4)GlcNAc(b1-2)Man(a1-3)[Neu5Gc(a2-3)Gal(b1-4)GlcNAc(b1-3)Gal(b1-4)GlcNAc(b1-2)Man(a1-6)]Man(b1-4)GlcNAc(b1-4)GlcNAc
# How it was run: as §1
# [21] = target: Neu5Gc(a2-3)Gal(b1-4)[Fuc(a1-3)]GlcNAc
# How it was run: as §1
# [22] = target: Neu5Gc(a2-6)Gal(b1-4)GlcNAc
# How it was run: as §1
# Neu5Gc(a2-6)GalNAc = target: Neu5Gc(a2-6)GalNAc
# How it was run: as §1
# [23] = target: Neu5Gc(a2-8)Neu5Ac(a2-3)Gal(b1-4)GlcNAc
# How it was run: as §1
# [24] = target: Neu5Gc(a2-8)Neu5Gc(a2-3)Gal(b1-4)GlcNAc
# How it was run: as §1
# [25] = target: Neu5Gc(a2-8)Neu5Gc(a2-3)Gal(b1-4)GlcNAc(b1-3)Gal(b1-4)GlcNAc
# How it was run: as §1
# [26] = target: Neu5Gc(a2-8)Neu5Gc(a2-6)Gal(b1-4)GlcNAc
# How it was run: as §1
# [27] = target: Neu5Gc(b2-6)Gal(b1-4)GlcNAc
# How it was run: as §1
binder,measurement,setting,value
FimA-N2 (Actinomyces oris) (protein) MHHHHHHSSGVDLGTENLYFQSNAWIYDVNVYPKNEAIDVDKTIQAQKLNGYGVGSLIKFPVESTAPTLDAKSFYKYFQLKDTLDERLSEVTATDVSLEGTPLQPTDYKVETKQQTVTVTFTAEGLKKIKAAPGKKVSAVFQGKVTKAGNGAITNRAQVISDTLYAEQPPTPETPPTDPENPPTSDEVISRWGDLSIKKVDTHQQGQTKA,glycan array binding signal (z-score),Neu5Ac(a2-8)Neu5Ac,-0.483
same,glycan array binding signal (z-score),[1],-0.55
same,glycan array binding signal (z-score),[2],-0.655
same,glycan array binding signal (z-score),[3],-1.36
same,glycan array binding signal (z-score),[4],-0.815
same,glycan array binding signal (z-score),[5],-0.044
same,glycan array binding signal (z-score),[6],-1.37
same,glycan array binding signal (z-score),[7],-0.152
same,glycan array binding signal (z-score),[8],-0.12
same,glycan array binding signal (z-score),[9],0.705
same,glycan array binding signal (z-score),[10],0.959
same,glycan array binding signal (z-score),[11],0.299
same,glycan array binding signal (z-score),[12],-0.243
same,glycan array binding signal (z-score),[13],-0.48
same,glycan array binding signal (z-score),Neu5Ac(b2-6)GalNAc,-0.452
same,glycan array binding signal (z-score),[14],-0.694
same,glycan array binding signal (z-score),[15],0.016
same,glycan array binding signal (z-score),[16],-0.568
same,glycan array binding signal (z-score),[17],0.728
same,glycan array binding signal (z-score),[18],-1.11
same,glycan array binding signal (z-score),Neu5Gc(a2-3)Gal(b1-4)Glc,0.478
same,glycan array binding signal (z-score),[19],-0.066
same,glycan array binding signal (z-score),[20],-0.144
same,glycan array binding signal (z-score),[21],0.623
same,glycan array binding signal (z-score),[22],-0.697
same,glycan array binding signal (z-score),Neu5Gc(a2-6)GalNAc,-0.616
same,glycan array binding signal (z-score),[23],0.386
same,glycan array binding signal (z-score),[24],-1.21
same,glycan array binding signal (z-score),[25],0.928
same,glycan array binding signal (z-score),[26],-1.78
same,glycan array binding signal (z-score),[27],-0.336

# Shown tab-delimited: part of the list above
binder	measurement	setting	value
FimA-N2 (Actinomyces oris) (protein) MHHHHHHSSGVDLGTENLYFQSNAWIYDVNVYPKNEAIDVDKTIQAQKLNGYGVGSLIKFPVESTAPTLDAKSFYKYFQLKDTLDERLSEVTATDVSLEGTPLQPTDYKVETKQQTVTVTFTAEGLKKIKAAPGKKVSAVFQGKVTKAGNGAITNRAQVISDTLYAEQPPTPETPPTDPENPPTSDEVISRWGDLSIKKVDTHQQGQTKA	glycan array binding signal (z-score)	[10]	0.959
same	glycan array binding signal (z-score)	[11]	0.299
